In article PMC5650148, “Ssn6-Tup1 global transcriptional co-repressor: Role of the N-terminal glutamine-rich region of Ssn6” (PLoS ONE, 2017) one finds binding data, which are given here for 1 molecule.

Results are given in words; binding and its absence hold for the method and conditions named. Binding calls can cover weak binding; strength is not graded here.

The target in this experiment is LexA hybrid containing the TPR domain of Ssn6 (yeast). The experiment is described as follows: two-hybrid; library screen: LexA hybrid with the TPR domain of Ssn6 as bait against a Gal4p activation domain yeast genomic library.

B1: Ssn6 Δ29 (amino acids 30 to 180) (domain or fragment, yeast, UniProt P14922 30-180, looked up)
chain: QAAVPQQPLDPLTQSTAETWLSIASLAETLGDGDRAAMAYDATLQFNPSSAKALTSLAHLYRSRDMFQRAAELYERALLVNPELSDVWATLGHCYLMLDDLQRAYNAYQQALYHLSNPNVPKLWHGIGILYDRYGSLDYAEEAFAKVLELD
notes: Ssn6 (also known as Cyc8), yeast, amino acids 30 to 180; lacks residues 1-29 of the NTpolyQ tail and contains three intact TPRs; also called Ssn6 Δ29-Gal4; LexA-Ssn6 Δ29; source: yeast two-hybrid fusion (clone isolated from a Gal4pAD yeast genomic library, pACTII)
As for B1, the binding result was “binds”.
